PubChem BioAssay AID587 (National Center for Advancing Translational Sciences (NCATS), 2007)
The whole screen tested about 59,000 compounds, of which about 35 (0.06%) were called active. This list was built around the results that the source calls inconclusive (neither active nor inactive); the mix of calls is not that of the screen. No stated cut-off is given here; in the data, active means max dye-equivalent concentration above about 10 nM; inconclusive means between about 1.1 nM and that limit; inactive means weaker than that.

Test: qHTS Assay for Spectroscopic Profiling in Texas Red Spectral Region
Conditions: Compound fluorescence, Texas Red channel, 547/618 nm; active compounds read high
Summary of the method: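 Fluorescence at ex 547/em 618 nm, normalized against an on-plate Texas Red standard series to give dye-equivalent concentration per compound concentration. Buffer 100 mM Tris, pH 8.0; 15 min RT incubation before CCD imaging.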

| SMILES | max dye-equivalent concentration |
| --- | --- |
| C=CCN1C(=O)C2(C(C(=O)OCC)=C(N)Oc3c2c(=O)oc2ccccc32)c2ccccc21 (stereo not given) | inconclusive: 1.2 nM |
| COC[C@@H]1OC(=O)c2coc3c2[C@]1(C)C1=C(C3=O)[C@H]2CCC(=O)[C@]2(C)C[C@@H]1OC(C)=O | inconclusive: 1.2 nM |
| CCN(CC)C(=O)c1ccc(NC(=O)CSc2nnnn2-c2cc(OC)ccc2OC)cc1 | inconclusive: 1.3 nM |
| CCn1c(C)c(C(=O)O)c2cc(OC)ccc21 | inconclusive: 1.6 nM |
| CCN(CC)C(=O)N[C@H]1C=C2c3cccc4[nH]cc(c34)C[C@@H]2N(C)C1 | inconclusive: 1.6 nM |
| CCc1cccc2c(C#N)cn(CC(=O)N3CCOCC3)c12 | inconclusive: 1.7 nM |
| CCN1C[C@@]2(COC(=O)c3ccccc3N3C(=O)C[C@H](C)C3=O)CC[C@H](OC)[C@@]34[C@@H]5CC6[C@@H](OC)C[C@@](O)([C@H]5[C@H]6OC)C(O)([C@@H]13)[C@@H](OC)[C@H]24 | inactive |
| CCCCC12CNCC(C)(CNC1)C2=O | inconclusive: 1.5 nM |
| CCN1c2nc3c(C)cccn3c(=O)c2CC2(C(=O)N(C)C(=O)N(C)C2=O)C1C (stereo not given) | inconclusive: 2.2 nM |
| [N-]=[N+]=NCC(=O)c1c[nH]c(=O)[nH]c1=O | inactive |
| OC(COCc1ccc(Cl)cc1)CN1CC=C(c2ccccc2)CC1 (stereo not given) | inconclusive: 1.8 nM |
| CCC(=NCc1ccco1)c1c(O)n(C2CCCCC2)c(=O)[nH]c1=O | inconclusive: 1.2 nM |
| CC(=O)c1c(O)c(C)c(O)c(Cc2c(O)c3c(c(C(=O)/C=C\c4ccccc4)c2O)OC(C)(C)C=C3)c1O | inconclusive: 1.4 nM |
| O=C1N[C@@]2(CN3CCC2CC3)C(=O)N1CN(Cc1ccccc1)c1ccccc1 | inconclusive: 1.3 nM |
| C=C[C@]12CN(C)[C@H]3C1[C@@]1(C(=O)Nc4ccccc41)[C@H]1C[C@H]2[C@H]3CO1 | inconclusive: 1.1 nM |
| O=c1[nH]c(=O)n(CCc2ccc(F)cc2)c(O)c1C=NCCCn1ccnc1 | inconclusive: 1.1 nM |
| Cc1nc2cc(F)ccc2n1C1CCN(Cc2nnnn2CCc2ccccc2)CC1 | inconclusive: 1.3 nM |
| CC(C)[C@H]1C(=O)N2CCC[C@H]2[C@]2(O)O[C@](NC(=O)[C@@H]3C=C4c5cccc6[nH]cc(c56)C[C@H]4N(C)C3)(C(C)C)C(=O)N12 | inactive |
| O=C(Nc1ccccc1)N1CCCC2(CCN(C(=O)Oc3ccccc3)CC2)C1 | inactive |
| C=C(C)[C@H]1Cc2c(ccc3c2O[C@H]2COc4cc(OC)c(OC)cc4[C@@H]2C3=O)O1 | inactive |
| COc1cc2c(cc1OC)[C@@]13CCN4C=C5CCO[C@H]6CC(=O)N2[C@@H]1[C@@H]6[C@H]5C[C@H]43 | inactive |
| Cc1ccc(OCC(=O)N2CCN(C)CC2)c(Br)c1 | inconclusive: 1.1 nM |
| C(#CCN1CCCC1)CN1CCCC1 | inconclusive: 2 nM |
| CC[C@]1(OC(=O)CN)C(=O)OCc2c1cc1n(c2=O)Cc2cc3ccccc3nc2-1 | inactive |
| COc1ccc(C2=NCC(=O)N(CC(=O)NCc3ccco3)c3sc4c(c32)CCCC4)cc1OC | inconclusive: 1.1 nM |

| SMILES | max dye-equivalent concentration |
| --- | --- |
| COCCCn1c(N)c(C(=O)NCCC(C)C)c2nc3ccccc3nc21 | inconclusive: 1.2 nM |
| O=c1ccc2cc(O[C@H]3O[C@@H](CO)[C@@H](O)[C@@H](O)[C@@H]3O)c(O)cc2o1 | inconclusive: 1.3 nM |
| O=C(NCP(=O)(O)O)c1cccnc1 | inactive |
| NC(=O)CI | inconclusive: 1.2 nM |
| CC(=O)OCC1=C(C(=O)[O-])N2C(=O)[C@@H](NC(=O)CCC[C@@H](N)C(=O)[O-])[C@@H]2SC1.[Zn+2] | inactive |
| O=C(NC(Cc1ccccc1)C(=O)N1CCC2(CC1)OCCO2)C1CCCCC1 (stereo not given) | inconclusive: 1.4 nM |
| Cc1nc2ccccc2cc1C[N+]12CN3CN(CN(C3)C1)C2 | inconclusive: 1.5 nM |
| CN1CCC2(CC1)CCN(C(=O)Oc1ccccc1)CC2 | inactive |
| C[C@H]1CC[C@@]2(NC1)O[C@@H]1C[C@H]3[C@@H]4CC=C5C[C@@H](O)CC[C@]5(C)[C@@H]4CC[C@]3(C)[C@@H]1[C@@H]2C | inconclusive: 1.4 nM |
| COc1cc2[nH]c(=O)n(-c3ccccc3)c(=O)c2cc1OC | inconclusive: 1.4 nM |
| COc1cc2ccccc2c2cc([N+](=O)[O-])oc12 | inactive |
| COC(=O)C1C2c3ccccc3OC1(C)N=c1s/c(=C/c3cnn(C)c3C)c(=O)n12 (stereo not given) | inconclusive: 1.7 nM |
| CC(=O)O[C@H]1C[C@@H](O[C@@H]2[C@H](C)O[C@H](O[C@@H]3[C@H](C)O[C@H](O[C@@H]4CC[C@@]5(C)[C@@H](CC[C@]6(C)[C@]5(C)C[C@H](O)[C@]5(C)[C@@H](C7=CC(=O)OC7)CC[C@@]56O)C4)C[C@@H]3O)C[C@@H]2O)O[C@@H](C)[C@H]1O[C@H]1O[C@@H](CO)[C@@H](O)[C@@H](O)[C@@H]1O | inconclusive: 1.2 nM |
| CCC(=NCC1CCCO1)c1c(O)n(-c2ccccc2)c(=O)[nH]c1=O (stereo not given) | inconclusive: 1.9 nM |
| NCCP(=O)(O)O | inactive |
| CSC([N-]/N=C/c1cccc(C)n1)=[S]=[Cu].CS[C@H]([S-])[N-]/N=C/c1cccc(C)n1 | inactive |
| CN1CCc2cccc(Cl)c2CC1 | inconclusive: 1.2 nM |
| c1ccc(CCN2CCOCC2)nc1 | inactive |
| CCOC(=O)N1CCC(NC(=O)CCc2nc(C3=CCN(C)CC3)no2)CC1 | inconclusive: 1.7 nM |
| Cc1cccc(C)c1NC1=NCCCCS1 | inconclusive: 2.4 nM |
| CC[C@@H]1CN2CC[C@@H]1C[C@H]2[C@@H](O)c1ccnc2ccc(OC)cc12 | inactive |
| COc1cccc2c1C(=O)c1c(O)c3c(c(O)c1C2=O)C[C@](O)(/C(C)=N\O)C[C@@H]3O[C@H]1C[C@H](N)[C@@H](O)[C@H](C)O1 | active: 19 nM |
| O=C(Cn1ncc2c3ccccc3n(Cc3ccccc3F)c2c1=O)N1CCC2(CC1)OCCO2 | inconclusive: 1.7 nM |
| N#CS.N=C=S.N=C=S.[Cu].[NH2-].[NH2-].[NH2-].[NH2-].c1ccc2ncccc2c1 | inactive |
| CCC(=NC1CCN(Cc2ccccc2)CC1)c1c(O)[nH]c(=O)[nH]c1=O | inactive |

Compounds shown so far with a furan ring, fused or not, in the order listed:

| SMILES | max dye-equivalent concentration |
| --- | --- |
| COC[C@@H]1OC(=O)c2coc3c2[C@]1(C)C1=C(C3=O)[C@H]2CCC(=O)[C@]2(C)C[C@@H]1OC(C)=O | inconclusive: 1.2 nM |
| CCC(=NCc1ccco1)c1c(O)n(C2CCCCC2)c(=O)[nH]c1=O | inconclusive: 1.2 nM |
| COc1ccc(C2=NCC(=O)N(CC(=O)NCc3ccco3)c3sc4c(c32)CCCC4)cc1OC | inconclusive: 1.1 nM |
| COc1cc2ccccc2c2cc([N+](=O)[O-])oc12 | inactive |

(listing goes on)

| SMILES | max dye-equivalent concentration |
| --- | --- |
| CCCN(CCC)C1Cc2cc(OC)c(OC)cc2C1 | inconclusive: 1.3 nM |
| CCOC(=O)c1ccc2[nH]c(-c3ccc(S(=O)(=O)F)cc3)cc(=O)c2c1 | inconclusive: 1.9 nM |
| O=c1[nH]c(=O)n(C2CCCCCC2)c(O)c1C=NCC1CCCO1 (stereo not given) | inconclusive: 2.2 nM |
| O=c1[nH]c(=O)n(C2CCCCCC2)c(O)c1C=NC1CCN(Cc2ccccc2)CC1 | inconclusive: 1.1 nM |
| C/C=C(\C)C(=O)O[C@@H]1C(C)=C2[C@H]([C@@H]1OC(=O)CCCCCCC)[C@@](C)(OC(C)=O)C[C@@H](OC(=O)CCC)[C@@]1(O)[C@H]2OC(=O)[C@]1(C)O | inactive |
| COc1ccc(CCNCc2ccccn2)cc1OC | inconclusive: 1.1 nM |
| CC(C)[C@@]1(NC(=O)[C@@H]2C[C@H]3c4cccc5[nH]cc(c45)C[C@@H]3N(C)C2)O[C@@]2(O)[C@H]3CCCN3C(=O)[C@@H](Cc3ccccc3)N2C1=O | inactive |
| CCN1C[C@@]2(C)CC[C@H](O)[C@@]34[C@@H]5C[C@H]6[C@H](O)[C@@H]5[C@](O)(C[C@@H]6OC)[C@H](C[C@@H]23)[C@H]14 | inactive |
| c1ccc(C2CC2)c(OCC2=NCCN2)c1 | inconclusive: 1.1 nM |
| COC(=O)CCCNC(=O)CN1CC(c2ccccc2)CC1=O (stereo not given) | inconclusive: 2.7 nM |
| CCCN1CCC[C@H](c2cccc(C#N)c2)C1 | inactive |
| Cc1ccc(-n2c(O)c(C=Nc3ccccc3N)c(=O)[nH]c2=O)cc1C | inactive |
| CCCCC(=O)C1C(=O)NC(=O)NC1=O | inconclusive: 1.7 nM |
| O=c1[nH]c(=O)n(CCC2=CCCCC2)c(O)c1C=NCCN1CCNCC1 | inactive |
| CCCCn1c(O)c(C(C)=NCCc2ccccc2)c(=O)[nH]c1=O | inconclusive: 1.5 nM |
| CCC(=NCCN1CCOCC1)c1c(O)n(-c2ccccc2C)c(=O)[nH]c1=O | inconclusive: 1.3 nM |
| CCc1ccccc1NC(=O)CSc1nnc([C@@H](N)Cc2c[nH]c3ccccc23)o1 | inconclusive: 1.3 nM |
| Cc1ccc2c(c1)CC1(CN2C)C(=O)NC(=O)N(C(C)C)C1=O (stereo not given) | inconclusive: 1.4 nM |
| C[C@@]12CC[C@H](O[C@@H]3O[C@H](CO)[C@@H](O)[C@H](O)[C@@H]3O)C[C@@H]1CC[C@H]1[C@H]2CC[C@@]2(C)[C@@H](C3=CCOC3=O)CC[C@]12O | inconclusive: 1.1 nM |
| CC(=Nc1ccc2c(c1)CCC2)c1c(O)n(C2CCCCC2)c(=O)[nH]c1=O | inconclusive: 1.6 nM |
| C[N+]1([O-])[C@@H]2CC[C@H]1CC(OC(=O)[C@@H](CO)c1ccccc1)C2 (stereo not given in full) | inconclusive: 1.1 nM |
| CC(c1ccccc1F)n1cc(C(=O)Nc2ccc3nc[nH]c3c2)nn1 (stereo not given) | inconclusive: 1.9 nM |
| CC1(C)CC(n2[nH]c(=O)c3c2NC(=O)CSC3c2ccc(F)cc2)CCO1 (stereo not given) | inconclusive: 1.5 nM |
| O=C(O)[C@H]1[C@H](C(=O)O)[C@H]2CC[C@@H]1O2 | inactive |
| C=CCn1c(O)c(C(CC)=Nc2cc(OC)ccc2OC)c(=O)[nH]c1=O | inconclusive: 1.1 nM |
